Results taken from PMC5955555.
No constants are given. Whether binding was seen depends on the method and setting. In cells and extracts the contact can be indirect. Some entries that bind do so weakly or less than the wild type. Each block holds one molecule with its values, some of them ahead of it.

The chains behind the UniProt entries cited, without tags or fusion partners.
UniProt Q12846: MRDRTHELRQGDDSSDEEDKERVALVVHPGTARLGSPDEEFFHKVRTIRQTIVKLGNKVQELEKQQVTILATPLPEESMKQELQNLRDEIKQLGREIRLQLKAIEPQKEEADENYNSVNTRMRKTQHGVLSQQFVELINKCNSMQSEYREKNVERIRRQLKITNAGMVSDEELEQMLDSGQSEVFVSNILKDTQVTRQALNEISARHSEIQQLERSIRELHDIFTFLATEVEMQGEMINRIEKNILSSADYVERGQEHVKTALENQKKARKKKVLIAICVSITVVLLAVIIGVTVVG
UniProt P70605: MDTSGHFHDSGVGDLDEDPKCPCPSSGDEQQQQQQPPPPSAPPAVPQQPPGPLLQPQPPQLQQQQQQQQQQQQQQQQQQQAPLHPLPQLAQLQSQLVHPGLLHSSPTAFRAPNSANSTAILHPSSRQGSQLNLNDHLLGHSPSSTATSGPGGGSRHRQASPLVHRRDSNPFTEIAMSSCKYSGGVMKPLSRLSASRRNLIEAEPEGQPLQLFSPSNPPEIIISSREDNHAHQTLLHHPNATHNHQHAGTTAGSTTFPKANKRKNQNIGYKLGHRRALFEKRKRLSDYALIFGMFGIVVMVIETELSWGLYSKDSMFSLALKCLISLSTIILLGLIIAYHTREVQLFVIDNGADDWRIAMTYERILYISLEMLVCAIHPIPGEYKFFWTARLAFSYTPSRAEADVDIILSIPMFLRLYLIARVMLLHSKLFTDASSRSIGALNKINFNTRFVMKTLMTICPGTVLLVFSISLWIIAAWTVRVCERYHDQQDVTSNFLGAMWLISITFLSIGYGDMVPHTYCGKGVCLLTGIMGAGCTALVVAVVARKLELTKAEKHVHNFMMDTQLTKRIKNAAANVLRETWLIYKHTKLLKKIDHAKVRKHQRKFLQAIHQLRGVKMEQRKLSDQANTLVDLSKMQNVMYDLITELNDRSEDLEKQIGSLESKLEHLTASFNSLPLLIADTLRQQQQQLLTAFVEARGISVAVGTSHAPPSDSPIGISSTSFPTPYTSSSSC
UniProt Q9HBA0: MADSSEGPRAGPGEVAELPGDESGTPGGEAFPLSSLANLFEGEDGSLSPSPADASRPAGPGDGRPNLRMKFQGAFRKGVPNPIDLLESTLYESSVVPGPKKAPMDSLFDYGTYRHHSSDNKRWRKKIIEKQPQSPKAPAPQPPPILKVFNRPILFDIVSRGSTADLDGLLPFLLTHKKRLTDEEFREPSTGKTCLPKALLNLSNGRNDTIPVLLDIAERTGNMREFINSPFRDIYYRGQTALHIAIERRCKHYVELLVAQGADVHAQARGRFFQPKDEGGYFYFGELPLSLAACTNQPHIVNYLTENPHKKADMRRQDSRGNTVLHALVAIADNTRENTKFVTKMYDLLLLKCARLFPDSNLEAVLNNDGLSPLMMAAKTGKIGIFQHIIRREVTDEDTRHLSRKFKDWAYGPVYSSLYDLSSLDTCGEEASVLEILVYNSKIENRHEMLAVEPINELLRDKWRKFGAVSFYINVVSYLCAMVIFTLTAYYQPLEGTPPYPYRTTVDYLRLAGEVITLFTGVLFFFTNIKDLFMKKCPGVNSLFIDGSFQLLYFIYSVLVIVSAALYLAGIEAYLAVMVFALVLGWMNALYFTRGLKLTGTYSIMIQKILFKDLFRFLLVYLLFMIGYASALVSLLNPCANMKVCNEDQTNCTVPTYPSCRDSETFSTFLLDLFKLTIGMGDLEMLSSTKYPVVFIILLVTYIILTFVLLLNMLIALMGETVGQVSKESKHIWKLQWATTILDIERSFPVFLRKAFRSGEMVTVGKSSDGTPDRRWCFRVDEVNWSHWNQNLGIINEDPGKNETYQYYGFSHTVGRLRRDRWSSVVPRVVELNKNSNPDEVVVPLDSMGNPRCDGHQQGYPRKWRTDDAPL

Experiments:
GFP-tagged syntaxin-4 = GFP-tagged syntaxin-4 (UniProt Q12846); test: co-IP; HEK cells transfected with myc-KCa2.3 (alone, or with GFP-syntaxin-4); one partner immunoprecipitated from lysate, immunoblot for the other; IgG control
[1] = target: PM localized KCa2.3 (unpublished co-IP with TRPV4) (UniProt P70605); test: co-IP; unpublished observation; TRPV4 associated with PM localized KCa2.3, amount doubled on increasing intracellular Ca2+
myc-tagged KCa2.3 = myc-tagged KCa2.3 (UniProt P70605); test: co-IP; HEK cells transfected with myc-KCa2.3 (alone, or with GFP-syntaxin-4); one partner immunoprecipitated from lysate, immunoblot for the other; IgG control

- binding (GFP-tagged syntaxin-4): binds
Molecule: myc-tagged KCa2.3 (from UniProt P70605 1-732)

- binding [1]: binds
Molecule: TRPV4 (from UniProt Q9HBA0 1-871)

- binding (myc-tagged KCa2.3): binds
B1: SNAP-23 (endogenous, HEK cells) (protein, UniProt O00161 1-211)
chain: MDNLSSEEIQQRAHQITDESLESTRRILGLAIESQDAGIKTITMLDEQKEQLNRIEEGLDQINKDMRETEKTLTELNKCCGLCVCPCNRTKNFESGKAYKTTWGDGGENSPCNVVSKQPGPVTNGQLQQPTTGAASGGYIKRITNDAREDEMEENLTQVGSILGNLKDMALNIGNEIDAQNPQIKRITDKADTNRDRIDIANARAKKLIDS
